Source: PubChem BioAssay AID540275 (National Center for Advancing Translational Sciences (NCATS), 2011)
About 620 (0.19%) of roughly 320,000 compounds were called active. Inconclusive results, whose numbers are uncertain, are shown with a selection of clear calls. No stated cut-off is given here; in the data, active means activation above about 80%; inconclusive means between about 30% and that limit; inactive means weaker than that.

Chains of the proteins cited; added tags and fusions are not shown.
UniProt Q8NER1, whole entry, looked up: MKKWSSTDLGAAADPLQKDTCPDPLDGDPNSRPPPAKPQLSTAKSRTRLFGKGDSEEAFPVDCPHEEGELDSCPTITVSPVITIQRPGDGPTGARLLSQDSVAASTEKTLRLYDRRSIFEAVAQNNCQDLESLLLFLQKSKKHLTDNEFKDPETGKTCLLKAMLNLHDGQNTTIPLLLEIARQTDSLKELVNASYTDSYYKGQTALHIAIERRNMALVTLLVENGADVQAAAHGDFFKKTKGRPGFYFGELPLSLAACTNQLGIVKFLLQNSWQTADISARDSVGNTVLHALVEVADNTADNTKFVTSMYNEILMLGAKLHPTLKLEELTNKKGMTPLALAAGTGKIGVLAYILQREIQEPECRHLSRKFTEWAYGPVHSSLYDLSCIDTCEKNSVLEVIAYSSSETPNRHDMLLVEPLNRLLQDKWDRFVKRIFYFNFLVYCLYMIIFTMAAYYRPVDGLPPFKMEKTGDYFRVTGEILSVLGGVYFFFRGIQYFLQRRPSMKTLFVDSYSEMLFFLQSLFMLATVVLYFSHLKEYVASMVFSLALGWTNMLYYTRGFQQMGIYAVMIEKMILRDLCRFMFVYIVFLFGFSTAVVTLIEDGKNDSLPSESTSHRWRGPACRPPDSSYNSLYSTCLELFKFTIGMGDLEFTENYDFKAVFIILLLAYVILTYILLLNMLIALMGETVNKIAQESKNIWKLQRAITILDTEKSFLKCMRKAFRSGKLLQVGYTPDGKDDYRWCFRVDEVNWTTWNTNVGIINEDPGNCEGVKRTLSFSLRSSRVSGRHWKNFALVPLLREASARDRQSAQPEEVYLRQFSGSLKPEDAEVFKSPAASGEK

Molecular target: Transient receptor potential cation channel subfamily V member 1 (Homo sapiens) (UniProt Q8NER1)
Test: HTS Assay for Compounds that Act as Agonists of the Vanilloid Receptor 1; further: 0% is about no effect
Conditions: TRPV1-expressing cells, Fluo-8 calcium influx, agonist mode; at 8.33 µM, active compounds read high
Method in brief: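 Cells expressing TRPV1 were dye-loaded with Fluo-8 and read kinetically: 10 s baseline, 3 min after compound (agonist portion), then 2 min after EC20 capsaicin (allosteric enhancer portion). Calcium-bound dye fluorescence at 480/520 nm.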

Q: With CN1CCN(C(=O)C2=C[C@@H](c3ccccc3)C[C@@H](OCc3ccc(CO)cc3)O2)CC1 as the compound, how does the activation read?
A: inconclusive: 60.3%

Q: With CCOC(=O)c1cnc2ccc(F)cc2c1Nc1ccc2c(c1)OCCO2 as the compound, how does the activation read?
A: inconclusive: 32.9%

Q: Which activation does the source give for COc1cc(/C=N/NC(=O)C2COc3ccccc3O2)cc(OC)c1OC (centres undefined) here?
A: inactive: 0.243%

Q: For Cc1nnc2n(Cc3ccccc3)c(=O)c3c4c(sc3n12)COC(C)(C)C4, which activation is on record?
A: inconclusive: 32.2%

Q: For Cc1ccc(Nc2nnc(SCC(=O)c3ccc(O)cc3O)s2)cc1, which activation is on record?
A: inconclusive: 33.2%

Q: For CC1(C)CC(=O)C2=C(C1)N=C1c3ccccc3C(=O)C1C2c1ccc(Cl)cc1 (centres undefined), which activation is on record?
A: inconclusive: 53.7%

Q: How did the activation turn out when CN1/C(=C\C=C2/C(=O)Oc3ccccc3C2=O)C(C)(C)c2ccccc21 was run?
A: active: 107%

Q: O=C1/C(=C/c2cccnc2)Sc2ccccc21 was tested. Which activation did it give?
A: inconclusive: 31.8%

Q: With Cc1ccc(CNC(=O)CCCc2cn(C)c3ccccc23)cc1 as the compound, how does the activation read?
A: inconclusive: 48.4%

Q: With Nc1nnnn1/N=C/c1ccccc1OCc1ccccc1 as the compound, how does the activation read?
A: inconclusive: 33.8%

Q: For Cc1ccc(NC(=O)c2ccc(N3CCCC3=O)cc2)cc1S(=O)(=O)N1CCCCC1, which activation is on record?
A: inactive: 1.13%

Q: How did the activation turn out when Nc1nn(-c2ccccc2)c(N)c1N=Nc1ccccc1F was run?
A: inconclusive: 70.6%

Q: How did the activation turn out when COc1cccc(CNC(=O)C(=O)NCCC2CCCCN2S(=O)(=O)c2ccccc2)c1 (centres undefined) was run?
A: inconclusive: 30.2%

Q: Which activation does the source give for O=C(Nc1ccccc1N1CCN(C(=O)c2ccccc2)CC1)c1cc2ccccc2o1 here?
A: inconclusive: 32.1%

Q: With CC(C)C(=O)N1CCN(c2ccc(NC(=O)c3cccs3)cc2)CC1 as the compound, how does the activation read?
A: inactive: 4.59%

Q: With O=C(N/N=C/c1ccccc1O)NC12CC3CC(CC(C3)C1)C2 as the compound, how does the activation read?
A: inconclusive: 35%

Q: How did the activation turn out when COC(=O)/C=C/C(=O)N1CCN(c2ccccc2C)CC1 was run?
A: inconclusive: 30.4%

Q: How did the activation turn out when COc1cccc(OCc2cc(C(=O)N3CCC(c4ccncc4)CC3)no2)c1 was run?
A: inconclusive: 65.3%

Q: C/C(=N\NC(=O)c1cccc(S(=O)(=O)N2CCCC2)c1)c1ccccc1F was tested. Which activation did it give?
A: inconclusive: 34.3%

Q: With COc1ccccc1N(C)S(=O)(=O)c1ccc(C(=O)N(C)Cc2ccc(OC(F)F)cc2)cc1 as the compound, how does the activation read?
A: inconclusive: 33.7%

Q: COc1cc(/C=C(\C#N)c2[nH]nc(N)c2C#N)cc(OC)c1O was tested. Which activation did it give?
A: inactive: 12.6%

Q: With O=C(CS(=O)c1ccccc1[N+](=O)[O-])Oc1ccc(Br)cc1 (centres undefined) as the compound, how does the activation read?
A: inconclusive: 71.5%

Q: Which activation does the source give for CCOC(=O)[C@H]1[C@H]2COc3ccc(C)cc3[C@@H]2N2C(=O)c3ccc(C)cc3NC(=O)[C@@]12C here?
A: inconclusive: 75%

Q: With O=C1c2ccccc2C(=O)N1CCOc1cccc(Br)c1 as the compound, how does the activation read?
A: inconclusive: 50%

Q: How did the activation turn out when C=CCn1c(-c2cc(OC)c(OC)c(OC)c2)n[nH]c1=S was run?
A: inactive: -0.707%

Q: Which activation does the source give for CC1CCCN(C(=O)Cn2nnc(-c3ccc(S(C)(=O)=O)cc3)n2)C1 (centres undefined) here?
A: inactive: -2.5%

Q: With Fc1ccc(C2=NN(c3ccccc3)C(c3ccco3)C2)cc1 (centres undefined) as the compound, how does the activation read?
A: inactive: 4.26%

Q: With CCC(C)NC(=O)c1ccc2c(Cl)c3c(nc2c1)CCC3 (centres undefined) as the compound, how does the activation read?
A: inconclusive: 65.1%

Q: With CC1CCCCN1C(=O)c1cccc(NC2=C(Cl)C(=O)N(Cc3ccccc3)C2=O)c1 (centres undefined) as the compound, how does the activation read?
A: inconclusive: 34.6%

Q: For CCCCOc1ccc(/C=N/NC(=O)c2csc(C)c2C)cc1, which activation is on record?
A: inconclusive: 31.6%

Q: How did the activation turn out when CCN(CC)C(=O)c1ccc2c(=O)n(Cc3cccc(Br)c3)c(=S)[nH]c2c1 was run?
A: inactive: -1.7%

Q: Which activation does the source give for Cc1cc(C)c2cc(C(=O)Nc3ccc4c(c3)OCO4)[nH]c2c1 here?
A: inconclusive: 58.2%

Q: How did the activation turn out when Clc1ccc(C(c2ccccc2)N2CCN(c3ccccn3)CC2)cc1 (centres undefined) was run?
A: inconclusive: 42.4%

Q: Which activation does the source give for CN(c1ccccc1)P(=O)(N(C)c1ccccc1)N(C)c1ccccc1 here?
A: inconclusive: 38.2%

Q: How did the activation turn out when CC(=O)N1N=C(c2ccc(C)cc2)CC1c1ccco1 (centres undefined) was run?
A: inactive: 4.32%

Q: With CCC(=O)N1CCN(c2ccc(NC(=O)c3ccc([N+](=O)[O-])o3)cc2Cl)CC1 as the compound, how does the activation read?
A: inactive: 9.3%

Q: How did the activation turn out when O=C(N/N=C/c1cn(Cc2ccccc2)c2ccccc12)c1cccnc1 was run?
A: inactive: 4.23%

Q: For O=C(COC(=O)C12CC3CC(CC(C3)C1)C2)NC12CC3CC(CC(C3)C1)C2, which activation is on record?
A: inconclusive: 45.6%

Q: How did the activation turn out when O=C1CC(c2nc3ccccc3[nH]2)CN1c1cccc(C(F)(F)F)c1 (centres undefined) was run?
A: inconclusive: 65.1%

Q: Which activation does the source give for CCc1ccc(N2CCN(C(=O)N3CCOCC3)CC2)cc1 here?
A: inconclusive: 77.3%

Q: Which activation does the source give for COc1cccc(OC)c1CNC(=O)CCSCc1ccccc1F here?
A: inconclusive: 33.7%

Q: Which activation does the source give for CC1(C)Cc2ccccc2-c2nnc(SCc3ccccc3)n21 here?
A: inconclusive: 44.5%

Q: With CCOC(=O)c1[nH]c2ccc(F)cc2c1NC(=O)CN1CCN(C/C=C/c2ccccc2)CC1 as the compound, how does the activation read?
A: inactive: 23.4%

Q: With Cc1cccc(NC(=O)c2cccc(S(=O)(=O)N(C)c3ccccc3)c2)n1 as the compound, how does the activation read?
A: inconclusive: 57.5%

Q: For CCOc1ccc(CCNC(=O)COC(=O)CSc2ccccc2C)cc1OCC, which activation is on record?
A: inconclusive: 37.5%

Q: With O=C(/C=C/c1ccccc1Cl)c1ccc(O)cc1 as the compound, how does the activation read?
A: inconclusive: 63.6%

Q: How did the activation turn out when CC(=O)c1ccc(OCc2ccc(Oc3c(Cl)cccc3[N+](=O)[O-])cc2)cc1 was run?
A: inactive: 2.45%

Q: For OCCCc1nc2ccccc2n1CCCCOc1ccccc1, which activation is on record?
A: inconclusive: 45.1%

Q: Which activation does the source give for NCCc1nnc(SCc2ccc(F)cc2)o1 here?
A: inactive: -0.891%

Q: With CCCCOC(=O)Nc1ccc(N(C)C)cc1 as the compound, how does the activation read?
A: inconclusive: 62.2%

Q: Which activation does the source give for FC(F)Sc1ccc(NC(=S)NC2CCC(NC(=S)Nc3ccc(SC(F)F)cc3)CC2)cc1 (centres undefined) here?
A: inconclusive: 50.2%

Q: How did the activation turn out when C[C@H](NC(=O)c1nc[nH]c1C(=O)N[C@H](C)c1ccccc1)C(=O)OC(C)(C)C was run?
A: inconclusive: 41.8%

Q: For Nc1ccc(NC(=O)NC2CCCCC2)cc1[N+](=O)[O-], which activation is on record?
A: inconclusive: 54.3%

Q: With O=c1ccc(-c2nc3ccccc3n2Cc2ccc(Cl)cc2)c[nH]1 as the compound, how does the activation read?
A: inactive: 18.5%

Q: How did the activation turn out when Cc1cc(N2CCCCC2)nc2ccc(NC(=O)c3ccc(Br)o3)cc12 was run?
A: inconclusive: 55.7%

Q: How did the activation turn out when O=[N+]([O-])c1cccc(NC(=S)NCCc2ccccc2)c1 was run?
A: inactive: 1.48%

Q: For CC1(C)NC(=O)N(CC(O)COc2cc3ccccc3cc2C(=O)N2CCCCC2)C1=O (centres undefined), which activation is on record?
A: inactive: -4.34%

Q: With O=C(CNS(=O)(=O)c1ccc(Br)s1)NCC1COc2ccccc2O1 (centres undefined) as the compound, how does the activation read?
A: inactive: 4.1%

Q: With Cc1ccccc1CN(C)C(C)C(=O)Nc1ccccc1F (centres undefined) as the compound, how does the activation read?
A: inactive: 19.4%

Q: With C/C(=N\NC(=O)c1ccc2c(c1)OCO2)c1ccc(NC(=O)CCCC(=O)O)cc1 as the compound, how does the activation read?
A: inconclusive: 31.2%

Q: How did the activation turn out when COc1ccc(NC(=O)/C=C/c2cccc(F)c2)cn1 was run?
A: inconclusive: 77.7%

Q: Which activation does the source give for CCOc1cc(C(=S)N2CCOCC2)cc(Br)c1OS(=O)(=O)c1ccccc1 here?
A: inconclusive: 44.2%

Q: O=C(Nc1ccc(Cl)cc1)c1cccc(N2C(=O)C3C4CCC(C4)C3C2=O)c1 (centres undefined) was tested. Which activation did it give?
A: inconclusive: 30.4%

Q: Which activation does the source give for CCCCSc1nc2c(c(=O)n1CC)SC(C)C2 (centres undefined) here?
A: inconclusive: 37.3%

Q: With O=C1c2ccccc2C(=O)C12OC2c1ccc(Cl)cc1Cl (centres undefined) as the compound, how does the activation read?
A: inactive: 7.47%

Q: For Cc1ccc(/C=C/c2ccc(=O)n(Cc3ccccc3Cl)n2)cc1, which activation is on record?
A: inconclusive: 31.9%

Q: With Cc1ccccc1-c1nc(C#N)c(N2CCC(C)CC2)o1 as the compound, how does the activation read?
A: inconclusive: 46.7%

Q: Which activation does the source give for Cc1cc2ncn(CCOc3ccccc3)c2cc1C here?
A: inconclusive: 31.5%

Q: For CCOC(=O)C(NC(=O)Nc1ccc(F)cc1F)(Oc1ccccc1)C(F)(F)F (centres undefined), which activation is on record?
A: inactive: -9.94%

Q: Which activation does the source give for CN(C)c1ccc(-c2noc(C3CCN(C(=O)Nc4ccc(Cl)cc4)CC3)n2)cc1 here?
A: inconclusive: 71.8%

Q: COCCCNC(=S)NNC(=S)Nc1ccc(F)cc1F was tested. Which activation did it give?
A: inactive: 6.81%

Q: With Clc1ccc2nc(CSc3ccccc3)cn2c1 as the compound, how does the activation read?
A: inconclusive: 32.4%

Q: With CN(C)c1ccc(C(C(=O)NC2CCCCC2)N(Cc2ccco2)C(=O)c2snc(C(N)=O)c2N)cc1 (centres undefined) as the compound, how does the activation read?
A: inactive: 5.91%

Q: O=S(=O)(c1ccc2ccccc2c1)N(CC(O)COCc1ccco1)c1ccccc1 (centres undefined) was tested. Which activation did it give?
A: inactive: 6.6%

Q: For c1ccc2nc(-c3nc4ccccc4[nH]3)ccc2c1, which activation is on record?
A: inconclusive: 57.4%

Q: How did the activation turn out when COc1ccc(CC(=O)Nc2cccc(-c3csc(C)n3)c2)cc1 was run?
A: inconclusive: 73.7%

Q: Which activation does the source give for CCCOc1ccccc1OCC(=O)Nc1cc(Cl)ccc1-n1cncn1 here?
A: inconclusive: 48.4%

Q: With COc1ccc(OCCCC(=O)Nc2cc(Cl)ccc2-n2cncn2)cc1 as the compound, how does the activation read?
A: inactive: -1.88%

Q: COCCC(=O)N1CCc2ccc(NC(=O)c3ccc(C(F)(F)F)cc3)cc2C1 was tested. Which activation did it give?
A: inconclusive: 35.6%

Q: For O=C(NC1CCCc2c1cnn2-c1ccc(F)cc1F)c1csnn1 (centres undefined), which activation is on record?
A: inactive: 10%

Q: With O=c1oc(CCCO)cc2ccc(C#CC3(O)CCCCC3)cc12 as the compound, how does the activation read?
A: inconclusive: 46.4%

Q: Which activation does the source give for Cc1ccc(NC(=O)c2ccc(Cl)c(S(=O)(=O)N3CCCCCC3)c2)nc1 here?
A: inconclusive: 78.2%

Q: With COC(=O)c1ccc(/C=N/n2c(C)nc3ccccc3c2=O)cc1 as the compound, how does the activation read?
A: inconclusive: 66%

Q: Which activation does the source give for O=C(CSc1ccc(F)cc1)Nc1ccc(N2CCOCC2)c(Cl)c1 here?
A: inconclusive: 31.2%

Q: With C/C(=C\C(=O)Nc1nccs1)c1ccccc1 as the compound, how does the activation read?
A: inconclusive: 36.7%

Q: How did the activation turn out when O=c1c2nnn(-c3ccc(Cl)cc3)c2ncn1Cc1ccccn1 was run?
A: inconclusive: 53.1%

Q: How did the activation turn out when CCCn1c(SCN2C(=O)c3ccccc3C2=O)nc2cc(Cl)ccc2c1=O was run?
A: inactive: 2.78%

Q: Which activation does the source give for Cc1cc(C)n(-c2ccc(C(=O)Nc3cccc([N+](=O)[O-])c3)cc2)n1 here?
A: inconclusive: 62.3%

Q: Cc1ccc(Cn2c(=O)c3cccnc3n(CC(=O)Nc3cccc(C(F)(F)F)c3)c2=O)cc1 was tested. Which activation did it give?
A: inactive: -6.88%
